Test results taken from the supplement of paper PMC12067093, “Discovery and optimisation of a covalent ligand for TRIM25 and its application to targeted protein ubiquitination” (Chemical Science, 2025).
This is one part of the list.

Chains of the proteins cited; added tags and fusions are not shown. Lines headed by an entry give the natural chain unless they say otherwise; changes in a name come on top.
UniProt Q96P48: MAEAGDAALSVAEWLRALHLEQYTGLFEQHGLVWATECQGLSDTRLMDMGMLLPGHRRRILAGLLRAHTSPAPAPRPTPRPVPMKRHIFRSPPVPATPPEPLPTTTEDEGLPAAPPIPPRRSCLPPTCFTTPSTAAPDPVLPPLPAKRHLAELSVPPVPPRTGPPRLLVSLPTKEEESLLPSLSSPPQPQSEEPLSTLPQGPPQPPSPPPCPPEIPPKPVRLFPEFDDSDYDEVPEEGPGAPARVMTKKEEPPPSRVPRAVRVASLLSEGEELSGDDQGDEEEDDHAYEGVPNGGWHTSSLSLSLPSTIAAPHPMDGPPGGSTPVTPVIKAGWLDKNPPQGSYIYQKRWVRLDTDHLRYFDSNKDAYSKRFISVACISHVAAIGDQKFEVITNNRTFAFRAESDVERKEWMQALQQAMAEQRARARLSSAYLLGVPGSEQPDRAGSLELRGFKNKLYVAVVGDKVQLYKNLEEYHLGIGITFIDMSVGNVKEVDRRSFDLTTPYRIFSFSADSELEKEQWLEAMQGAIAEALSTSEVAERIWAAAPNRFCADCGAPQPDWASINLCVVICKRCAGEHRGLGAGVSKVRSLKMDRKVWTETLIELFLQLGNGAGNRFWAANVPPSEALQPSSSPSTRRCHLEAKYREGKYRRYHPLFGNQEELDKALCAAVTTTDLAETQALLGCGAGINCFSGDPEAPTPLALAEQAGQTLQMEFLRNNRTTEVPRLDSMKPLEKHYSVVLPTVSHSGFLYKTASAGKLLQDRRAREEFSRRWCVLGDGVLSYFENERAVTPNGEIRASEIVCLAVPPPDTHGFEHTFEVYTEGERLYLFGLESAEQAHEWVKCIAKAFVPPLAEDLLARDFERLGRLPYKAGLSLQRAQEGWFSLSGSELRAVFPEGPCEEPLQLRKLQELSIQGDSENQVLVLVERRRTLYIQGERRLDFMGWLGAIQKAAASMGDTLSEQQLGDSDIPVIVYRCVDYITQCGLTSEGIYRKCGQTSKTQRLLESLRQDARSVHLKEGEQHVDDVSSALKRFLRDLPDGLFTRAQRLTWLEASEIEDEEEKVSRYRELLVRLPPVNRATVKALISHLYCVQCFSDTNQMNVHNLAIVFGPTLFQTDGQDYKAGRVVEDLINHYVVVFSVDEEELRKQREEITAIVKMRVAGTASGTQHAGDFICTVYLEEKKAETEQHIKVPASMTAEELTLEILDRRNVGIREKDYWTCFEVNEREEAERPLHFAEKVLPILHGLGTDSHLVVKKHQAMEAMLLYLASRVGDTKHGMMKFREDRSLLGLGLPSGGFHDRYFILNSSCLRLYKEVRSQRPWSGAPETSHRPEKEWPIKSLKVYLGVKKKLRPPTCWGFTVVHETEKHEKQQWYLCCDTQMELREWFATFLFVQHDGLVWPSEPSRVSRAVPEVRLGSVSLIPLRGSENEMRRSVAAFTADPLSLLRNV
UniProt Q4LE39: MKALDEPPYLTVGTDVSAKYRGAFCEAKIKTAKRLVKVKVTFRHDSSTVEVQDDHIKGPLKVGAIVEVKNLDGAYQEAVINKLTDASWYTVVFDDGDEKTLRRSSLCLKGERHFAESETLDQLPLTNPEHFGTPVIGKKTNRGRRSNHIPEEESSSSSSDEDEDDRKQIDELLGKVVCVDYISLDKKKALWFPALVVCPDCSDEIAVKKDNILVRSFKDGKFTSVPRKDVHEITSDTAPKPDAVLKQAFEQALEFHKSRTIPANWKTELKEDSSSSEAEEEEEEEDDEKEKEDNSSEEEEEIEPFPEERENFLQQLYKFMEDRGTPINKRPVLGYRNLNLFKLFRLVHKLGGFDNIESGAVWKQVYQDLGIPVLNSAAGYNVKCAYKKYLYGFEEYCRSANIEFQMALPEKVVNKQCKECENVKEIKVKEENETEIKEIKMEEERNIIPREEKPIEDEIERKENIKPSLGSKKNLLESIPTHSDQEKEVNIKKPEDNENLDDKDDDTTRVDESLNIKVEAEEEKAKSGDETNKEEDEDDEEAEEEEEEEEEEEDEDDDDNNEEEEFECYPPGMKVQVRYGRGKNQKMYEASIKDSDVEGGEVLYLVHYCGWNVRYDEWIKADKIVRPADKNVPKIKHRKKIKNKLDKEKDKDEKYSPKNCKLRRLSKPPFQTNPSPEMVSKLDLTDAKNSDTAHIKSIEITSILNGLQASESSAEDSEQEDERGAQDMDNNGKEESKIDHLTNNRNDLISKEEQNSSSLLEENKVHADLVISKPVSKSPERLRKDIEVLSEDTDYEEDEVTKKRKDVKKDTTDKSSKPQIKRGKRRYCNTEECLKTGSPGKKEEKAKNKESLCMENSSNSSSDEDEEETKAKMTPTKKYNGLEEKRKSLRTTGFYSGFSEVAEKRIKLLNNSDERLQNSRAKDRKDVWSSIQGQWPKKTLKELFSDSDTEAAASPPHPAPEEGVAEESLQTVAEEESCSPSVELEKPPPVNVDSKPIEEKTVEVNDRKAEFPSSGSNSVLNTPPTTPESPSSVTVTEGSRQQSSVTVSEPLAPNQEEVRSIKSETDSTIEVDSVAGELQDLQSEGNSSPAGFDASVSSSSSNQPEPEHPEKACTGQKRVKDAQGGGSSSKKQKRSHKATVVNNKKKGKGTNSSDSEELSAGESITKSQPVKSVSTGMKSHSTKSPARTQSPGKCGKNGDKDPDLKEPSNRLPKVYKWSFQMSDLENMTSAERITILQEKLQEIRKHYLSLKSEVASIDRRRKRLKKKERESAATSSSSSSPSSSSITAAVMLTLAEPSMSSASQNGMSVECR
UniProt Q92974: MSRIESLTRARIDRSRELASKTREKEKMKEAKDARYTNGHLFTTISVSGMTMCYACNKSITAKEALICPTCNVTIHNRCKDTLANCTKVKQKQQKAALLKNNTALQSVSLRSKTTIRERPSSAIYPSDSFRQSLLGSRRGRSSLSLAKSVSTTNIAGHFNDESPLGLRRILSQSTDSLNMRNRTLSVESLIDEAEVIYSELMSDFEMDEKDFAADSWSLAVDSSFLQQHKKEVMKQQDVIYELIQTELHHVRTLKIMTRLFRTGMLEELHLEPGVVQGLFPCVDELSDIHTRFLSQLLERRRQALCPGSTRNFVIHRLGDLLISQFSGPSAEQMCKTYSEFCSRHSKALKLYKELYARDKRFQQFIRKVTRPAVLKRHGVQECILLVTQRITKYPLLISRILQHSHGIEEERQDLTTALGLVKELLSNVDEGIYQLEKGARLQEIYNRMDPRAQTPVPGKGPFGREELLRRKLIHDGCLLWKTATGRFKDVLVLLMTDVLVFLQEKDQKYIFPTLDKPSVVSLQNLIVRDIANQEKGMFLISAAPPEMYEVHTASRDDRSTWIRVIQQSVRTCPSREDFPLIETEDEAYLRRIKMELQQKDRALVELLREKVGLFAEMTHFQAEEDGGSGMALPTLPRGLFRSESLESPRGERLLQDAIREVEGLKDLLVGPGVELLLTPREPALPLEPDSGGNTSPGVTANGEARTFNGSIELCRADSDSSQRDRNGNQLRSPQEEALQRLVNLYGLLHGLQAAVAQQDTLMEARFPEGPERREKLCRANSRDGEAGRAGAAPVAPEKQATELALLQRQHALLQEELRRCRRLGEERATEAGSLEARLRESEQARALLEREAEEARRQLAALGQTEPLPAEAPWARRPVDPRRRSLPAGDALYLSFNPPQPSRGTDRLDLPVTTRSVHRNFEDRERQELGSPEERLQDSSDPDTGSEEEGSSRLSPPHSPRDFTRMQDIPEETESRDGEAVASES
UniProt Q9H0F7: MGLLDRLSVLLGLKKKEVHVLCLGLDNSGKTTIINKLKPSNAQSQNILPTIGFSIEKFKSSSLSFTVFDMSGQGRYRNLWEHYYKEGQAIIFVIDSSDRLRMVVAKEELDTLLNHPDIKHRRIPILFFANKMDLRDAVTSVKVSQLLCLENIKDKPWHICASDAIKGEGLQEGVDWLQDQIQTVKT
UniProt Q68CP9, whole entry, looked up: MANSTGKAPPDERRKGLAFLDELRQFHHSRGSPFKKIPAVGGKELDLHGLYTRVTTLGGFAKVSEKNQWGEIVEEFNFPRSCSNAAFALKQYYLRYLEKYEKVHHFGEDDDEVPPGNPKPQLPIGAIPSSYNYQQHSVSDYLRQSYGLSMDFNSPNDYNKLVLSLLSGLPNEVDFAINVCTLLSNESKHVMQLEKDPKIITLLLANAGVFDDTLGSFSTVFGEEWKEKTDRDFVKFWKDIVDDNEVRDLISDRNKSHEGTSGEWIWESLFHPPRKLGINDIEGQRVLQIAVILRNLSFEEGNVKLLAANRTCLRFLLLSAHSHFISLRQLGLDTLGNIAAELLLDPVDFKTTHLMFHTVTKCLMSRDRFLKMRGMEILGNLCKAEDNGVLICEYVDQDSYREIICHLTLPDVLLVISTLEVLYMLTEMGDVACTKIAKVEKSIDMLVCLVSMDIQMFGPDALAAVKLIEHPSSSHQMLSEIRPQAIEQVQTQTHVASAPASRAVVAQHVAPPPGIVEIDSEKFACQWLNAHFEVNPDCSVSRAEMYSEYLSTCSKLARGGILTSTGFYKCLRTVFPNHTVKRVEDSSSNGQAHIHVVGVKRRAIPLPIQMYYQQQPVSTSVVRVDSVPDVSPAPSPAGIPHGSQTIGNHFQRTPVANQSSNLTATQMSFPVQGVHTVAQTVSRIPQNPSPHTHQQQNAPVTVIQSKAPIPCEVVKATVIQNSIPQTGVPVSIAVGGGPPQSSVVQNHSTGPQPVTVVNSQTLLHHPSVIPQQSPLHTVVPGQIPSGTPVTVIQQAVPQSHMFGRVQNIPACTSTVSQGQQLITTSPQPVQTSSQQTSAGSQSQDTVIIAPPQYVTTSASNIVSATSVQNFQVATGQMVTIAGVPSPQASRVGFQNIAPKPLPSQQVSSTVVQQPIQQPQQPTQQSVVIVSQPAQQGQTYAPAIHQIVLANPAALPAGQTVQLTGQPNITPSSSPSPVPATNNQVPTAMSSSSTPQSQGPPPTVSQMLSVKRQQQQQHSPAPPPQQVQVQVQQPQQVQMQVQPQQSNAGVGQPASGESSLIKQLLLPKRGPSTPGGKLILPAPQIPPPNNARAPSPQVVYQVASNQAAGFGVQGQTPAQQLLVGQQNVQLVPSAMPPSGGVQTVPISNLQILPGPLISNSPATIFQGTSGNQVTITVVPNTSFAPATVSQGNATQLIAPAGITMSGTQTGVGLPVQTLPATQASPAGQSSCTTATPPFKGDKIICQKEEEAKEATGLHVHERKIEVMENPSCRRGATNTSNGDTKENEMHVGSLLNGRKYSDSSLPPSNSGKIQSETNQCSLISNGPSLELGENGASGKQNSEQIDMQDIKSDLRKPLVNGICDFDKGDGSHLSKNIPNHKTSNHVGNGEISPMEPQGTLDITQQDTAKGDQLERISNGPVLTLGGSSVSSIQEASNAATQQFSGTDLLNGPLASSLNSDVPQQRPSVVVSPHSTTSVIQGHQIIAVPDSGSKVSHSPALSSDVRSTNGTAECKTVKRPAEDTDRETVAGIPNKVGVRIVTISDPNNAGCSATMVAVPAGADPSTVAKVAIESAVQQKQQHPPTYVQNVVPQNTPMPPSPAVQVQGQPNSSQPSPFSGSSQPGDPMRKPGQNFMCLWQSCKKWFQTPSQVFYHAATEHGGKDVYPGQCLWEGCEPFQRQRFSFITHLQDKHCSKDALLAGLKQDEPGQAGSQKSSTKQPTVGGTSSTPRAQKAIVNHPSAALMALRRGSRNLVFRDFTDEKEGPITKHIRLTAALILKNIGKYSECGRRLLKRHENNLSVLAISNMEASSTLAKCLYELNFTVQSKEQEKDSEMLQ
UniProt Q9H993: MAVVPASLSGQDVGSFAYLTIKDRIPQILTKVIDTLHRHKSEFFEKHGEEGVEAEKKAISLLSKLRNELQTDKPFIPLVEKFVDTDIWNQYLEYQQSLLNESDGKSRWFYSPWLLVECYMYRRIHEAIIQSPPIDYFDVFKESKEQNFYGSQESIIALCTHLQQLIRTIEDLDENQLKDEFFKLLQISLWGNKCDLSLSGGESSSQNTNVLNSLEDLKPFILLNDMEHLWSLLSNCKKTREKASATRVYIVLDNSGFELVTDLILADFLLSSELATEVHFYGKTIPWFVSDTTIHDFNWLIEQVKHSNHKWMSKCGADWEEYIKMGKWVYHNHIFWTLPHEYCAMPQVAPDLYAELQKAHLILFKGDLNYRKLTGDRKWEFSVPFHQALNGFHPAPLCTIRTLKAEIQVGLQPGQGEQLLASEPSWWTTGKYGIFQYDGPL
UniProt Q9Y689: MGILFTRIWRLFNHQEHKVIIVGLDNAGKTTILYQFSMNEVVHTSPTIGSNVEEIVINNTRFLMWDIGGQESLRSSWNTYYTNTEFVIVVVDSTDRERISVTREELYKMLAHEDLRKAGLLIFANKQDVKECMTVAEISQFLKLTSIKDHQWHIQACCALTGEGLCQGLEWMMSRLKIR
UniProt Q13795: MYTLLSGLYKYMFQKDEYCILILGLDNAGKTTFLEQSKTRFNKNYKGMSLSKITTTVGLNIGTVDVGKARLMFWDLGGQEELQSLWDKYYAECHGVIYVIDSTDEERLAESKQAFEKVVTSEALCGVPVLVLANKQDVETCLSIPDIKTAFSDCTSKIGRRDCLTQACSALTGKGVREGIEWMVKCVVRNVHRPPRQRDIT

Compound: Cc1cc(ccc1-c1ccccc1)C(=O)N1CCCN(CC1)C(=O)CCl [compound 10]
Experiment: probe-labelled cysteine peptide fold change vs DMSO (competition) (log2 fold change); higher = less target engagement (more negative = stronger competition)
Conditions: THP-1, incubation time: 4 h
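Note: competitive profiling in live THP-1 cells: cysteine peptides tagged with an iodoacetamide desthiobiotin (IA-DTB) probe, intensity after compound treatment relative to DMSO-treated cells.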

Target	probe-labelled cysteine peptide fold change (10 µM)	probe-labelled cysteine peptide fold change (50 µM)
ARHGEF40_Q8TER5_1233_EAGPELSSECR (UniProt Q8TER5)	-0.0103	-0.622
ARHGEF6_Q15052_57+66_FCLDPQTEADCINNINDFLK (UniProt Q15052)	0.059	-0.192
ARHGAP27_Q6ZUM4_703_DQVFGCALAALCER (UniProt Q6ZUM4)	0.0728	0.139
ARHGEF18_Q6ZSZ5_692_QLHLEGMLCWK (UniProt Q6ZSZ5)	-0.117	0.011
ARHGAP30_Q7Z6I6_965_IHVAPANPCPR (UniProt Q7Z6I6)	-0.113	-0.2
ARHGEF10_O15013_477_EILQCHSLFQIALASR (UniProt O15013)	0.0754	0.721
ARAP1_Q96P48_900_AVFPEGPCEEPLQLR (UniProt Q96P48)	-0.318	-0.319
ARMC1_Q9NVT9_161_NLCEEALLK (UniProt Q9NVT9)	0.00245	0.398
ARFGEF2_Q9Y6D5_1617_LLDCLQESHSFSK (UniProt Q9Y6D5)	0.088	-0.132
ARRB1_P49407_59_RVYVTLTCAFR (UniProt P49407)	-0.301	0.047
ARID4B_Q4LE39_107_SSLCLK (UniProt Q4LE39)	0.0531	-0.0592
ARHGAP35_Q9NRY4_924_FTSIPCSQPQHK (UniProt Q9NRY4)	-0.0744	0.0121
ARHGEF2_Q92974_383_RHGVQECILLVTQR (UniProt Q92974)	0.0536	0.395
ARFGEF1_Q9Y6D6_1685_LLDCLLESHR (UniProt Q9Y6D6)	0.0662	0.00546
ARF6_P62330_90_HYYTGTQGLIFVVDCADRDR (UniProt P62330)	0.104	0.378
ARHGAP4_P98171_102_KEPSLLSPLHCWAVLLQHTR (UniProt P98171)	0.073	-0.0475
ARID1A_O14497_2043_EEEQDQGVSCNK (UniProt O14497)	0.579	0.698
ARHGAP4_P98171_569_GEDPLVEGCTAHDLDSVAGVLK (UniProt P98171)	-0.341	-0.0718
ARHGAP15_Q53QZ3_140_TGHKPESVDLCGAHIEWAK (UniProt Q53QZ3)	-0.0935	-0.296
ARHGEF1_Q92888_595_VELAAECCR (UniProt Q92888)	0.119	0.0448
ARCN1_P48444_9_VLLAAAVCTK (UniProt P48444)	0.0514	0.0775

Target	probe-labelled cysteine peptide fold change (10 µM)	probe-labelled cysteine peptide fold change (50 µM)
ARPC1B_O15143_346_CSQFCTTGMDGGMSIWDVK (UniProt O15143)	-0.124	-0.0673
ARL14EP_Q8N8R7_57_TGMTLSGNNTICFHHVK (UniProt Q8N8R7)	0.111	-0.0548
ARL6_Q9H0F7_148_VSQLLCLENIK (UniProt Q9H0F7)	-0.0609	-0.0738
ARHGAP9_Q9BRR9_666_AALALSESEQCLSQIQELIGSMPKPNHDTLR (UniProt Q9BRR9)	-0.0897	-0.281
ARHGEF10_O15013_1335_ASSALVVCGGQGHR (UniProt O15013)	-0.217	-0.402
ARHGAP25_P42331_154_VAGTPCGVFGQR (UniProt P42331)	0.0161	-0.205
ARL2_P36404_102_MQDCQR (UniProt P36404)	0.0663	0.348
APTX_Q7Z2E3_333_CHECQQLLPSIPQLK (UniProt Q7Z2E3)	0.0542	-0.134
APPL1_Q9UKG1_603_SESNLSSVCYIFESNNEGEK (UniProt Q9UKG1)	-0.0801	0.249
ARAP1_Q96P48_900_AVFPEGPCEEPLQLRK (UniProt Q96P48)	-0.188	-0.248
ARHGEF1_Q92888_815_ILSDLLPFCR (UniProt Q92888)	0.0999	-0.0607
ARHGEF11_O15085_866_FQLFMQEAESHPQCR (UniProt O15085)	0.00238	0.247
ARHGEF6_Q15052_738_QCLEEELK (UniProt Q15052)	0.0621	-0.356
ARFGEF1_Q9Y6D6_1050_CISQLELAQLIGTGVKPR (UniProt Q9Y6D6)	0.0713	-0.125
ARID2_Q68CP9_1271_KIEVMENPSCR (UniProt Q68CP9)	-0.27	-0.345
ARPC1B_O15143_26_TQIAICPNNHEVHIYEK (UniProt O15143)	0.0629	-0.0227
ARFGEF1_Q9Y6D6_1729_QETSSLACGLR (UniProt Q9Y6D6)	-0.151	0.114
ARHGEF2_Q92974_56_YTNGHLFTTISVSGMTMCYACNK (UniProt Q92974)	-0.111	-0.217
ARMC6_Q6NXE6_484_DLGCHVELR (UniProt Q6NXE6)	-0.222	-0.573
ARPC2_O15144_120_NCFASVFEK (UniProt O15144)	-0.0375	0.00267
ARHGAP17_Q68EM7_53_RLVACFQGQHGTDAER (UniProt Q68EM7)	0.0556	-0.0362

Target	probe-labelled cysteine peptide fold change (10 µM)	probe-labelled cysteine peptide fold change (50 µM)
ARHGAP17_Q68EM7_305_AALDCSTSHLDEFYSDPHAVAGALK (UniProt Q68EM7)	-0.0902	-0.0345
ARMT1_Q9H993_398_KWEFSVPFHQALNGFHPAPLCTIR (UniProt Q9H993)	-0.0109	0.0403
ARHGAP17_Q68EM7_53_LVACFQGQHGTDAER (UniProt Q68EM7)	0.108	0.131
ARID4B_Q4LE39_420_ECENVK (UniProt Q4LE39)	-0.169	-0.17
ARL5A_Q9Y689_132_ECMTVAEISQFLK (UniProt Q9Y689)	0.0165	0.24
ARHGEF11_O15085_402_GVLCEAQEAAMPEIQEQIHDYR (UniProt O15085)	-0.242	-0.0418
ARHGAP26_Q9UNA1_767_ALYACK (UniProt Q9UNA1)	-0.0407	-0.00284
ARIH2_O95376_233_DYVESHYQLQLCPGADCPMVIR (UniProt O95376)	0.202	0.24
ARIH1_Q9Y4X5_362_DGGCNHMVCR (UniProt Q9Y4X5)	0.0883	-0.0719
ARHGEF10_O15013_1030_STVMSLACTSQSLYAGLVNGAVASYAR (UniProt O15013)	0.309	0.376
ARAP1_Q96P48_774_RWCVLGDGVLSYFENER (UniProt Q96P48)	-0.00746	0.00922
ARFGAP2_Q8N6H7_97_QHGCTANDANTK (UniProt Q8N6H7)	-0.0453	-0.0512
ARPC1B_O15143_13_AYHSFLVEPISCHAWNK (UniProt O15143)	0.161	-0.0729
ARHGEF2_Q92974_478_LIHDGCLLWK (UniProt Q92974)	-0.108	-0.0351
ARHGAP19_Q14CB8_359_VDSCPHQEETQHHTEEALR (UniProt Q14CB8)	0.175	-0.0273
ARFRP1_Q13795_141_QDVETCLSIPDIK (UniProt Q13795)	-0.0506	0.434
ARHGAP30_Q7Z6I6_449_GLECPALQHRPSPASGPGPGPGLGPGPPDEK (UniProt Q7Z6I6)	-0.215	-0.563
ARFRP1_Q13795_125_VVTSEALCGVPVLVLANK (UniProt Q13795)	-0.0685	-0.232
ARHGEF6_Q15052_319_VGGCLLSLMPHFK (UniProt Q15052)	-0.297	-0.105
APTX_Q7Z2E3_161_DAAQEAEAGTGLEPGSNSGQCSVPLK (UniProt Q7Z2E3)	-0.585	0.317
ARHGEF18_Q6ZSZ5_788_AVESCPDEEEGPFSLPEEERK (UniProt Q6ZSZ5)	-0.137	0.0513

Another view of part of the listing above.
Target,probe-labelled cysteine peptide fold change (10 µM),probe-labelled cysteine peptide fold change (50 µM)
ARAP1_Q96P48_900_AVFPEGPCEEPLQLRK (UniProt Q96P48),-0.188,-0.248
ARHGEF1_Q92888_815_ILSDLLPFCR (UniProt Q92888),0.0999,-0.0607
ARHGEF11_O15085_866_FQLFMQEAESHPQCR (UniProt O15085),0.00238,0.247
ARHGEF6_Q15052_738_QCLEEELK (UniProt Q15052),0.0621,-0.356
ARFGEF1_Q9Y6D6_1050_CISQLELAQLIGTGVKPR (UniProt Q9Y6D6),0.0713,-0.125
ARID2_Q68CP9_1271_KIEVMENPSCR (UniProt Q68CP9),-0.27,-0.345
ARPC1B_O15143_26_TQIAICPNNHEVHIYEK (UniProt O15143),0.0629,-0.0227
ARFGEF1_Q9Y6D6_1729_QETSSLACGLR (UniProt Q9Y6D6),-0.151,0.114
ARHGEF2_Q92974_56_YTNGHLFTTISVSGMTMCYACNK (UniProt Q92974),-0.111,-0.217
ARMC6_Q6NXE6_484_DLGCHVELR (UniProt Q6NXE6),-0.222,-0.573
ARPC2_O15144_120_NCFASVFEK (UniProt O15144),-0.0375,0.00267
ARHGAP17_Q68EM7_53_RLVACFQGQHGTDAER (UniProt Q68EM7),0.0556,-0.0362
ARHGAP17_Q68EM7_305_AALDCSTSHLDEFYSDPHAVAGALK (UniProt Q68EM7),-0.0902,-0.0345
ARMT1_Q9H993_398_KWEFSVPFHQALNGFHPAPLCTIR (UniProt Q9H993),-0.0109,0.0403
ARHGAP17_Q68EM7_53_LVACFQGQHGTDAER (UniProt Q68EM7),0.108,0.131
ARID4B_Q4LE39_420_ECENVK (UniProt Q4LE39),-0.169,-0.17
ARL5A_Q9Y689_132_ECMTVAEISQFLK (UniProt Q9Y689),0.0165,0.24
ARHGEF11_O15085_402_GVLCEAQEAAMPEIQEQIHDYR (UniProt O15085),-0.242,-0.0418
ARHGAP26_Q9UNA1_767_ALYACK (UniProt Q9UNA1),-0.0407,-0.00284
ARIH2_O95376_233_DYVESHYQLQLCPGADCPMVIR (UniProt O95376),0.202,0.24

(list continues)

Target	probe-labelled cysteine peptide fold change (10 µM)	probe-labelled cysteine peptide fold change (50 µM)
ARHGEF2_Q92974_86_DTLANCTK (UniProt Q92974)	-0.192	-0.167
ARHGDIB_P52566_76_LTLVCESAPGPITMDLTGDLEALKK (UniProt P52566)	0.337	0.372
ARHGAP17_Q68EM7_190_EEMDEAGNKVEQCK (UniProt Q68EM7)	0.0864	0.151
ARHGEF18_Q6ZSZ5_315_ECVNGHQLLQGTFSGPSSCPLCGKPFLSSASLK (UniProt Q6ZSZ5)	-0.203	-0.62
ARPC1B_O15143_227_VAWVSHDSTVCLADADKK (UniProt O15143)	0.103	-0.0807
ARHGAP26_Q9UNA1_11+12_GLPALEFSDCCLDSPHFR (UniProt Q9UNA1)	-0.174	0.0714
ARNT_P27540_119_MTAYITELSDMVPTCSALAR (UniProt P27540)	-0.0639	0.32
ARL1_P40616_80_CYYSNTDAVIYVVDSCDRDR (UniProt P40616)	0.0978	-0.3
ARHGEF1_Q92888_892_QLEELEEEFCR (UniProt Q92888)	-0.148	0.153
ARHGEF7_Q14155_349_VGGCFLNLMPQMK (UniProt Q14155)	0.449	0.294
ARHGEF10_O15013_959_ILCMLYVPVEEK (UniProt O15013)	0.178	0.221
ARHGAP4_P98171_569_VSEIRDAFERGEDPLVEGCTAHDLDSVAGVLK (UniProt P98171)	-0.105	-0.434
ARHGEF12_Q9NZN5_784_EVLLGLKPCEIK (UniProt Q9NZN5)	-0.275	-0.43
ARHGEF6_Q15052_119_ATEDQLSERPCGR (UniProt Q15052)	-0.14	-0.428
ARHGEF6_Q15052_25_KTICDPEEFLK (UniProt Q15052)	-0.21	-0.873
ARHGEF7_Q14155_490_TLGNVTYMSQVLIQCAGSEEK (UniProt Q14155)	-0.204	-1.18
ARHGEF18_Q6ZSZ5_887_SAMSEIEGIQSLICR (UniProt Q6ZSZ5)	-0.16	-0.241
ARHGAP45_Q92619_469_TCVADAK (UniProt Q92619)	0.126	-0.0757
ARHGEF2_Q92974_68+71_EALICPTCNVTIHNR (UniProt Q92974)	-0.0269	-0.329
